According to patent EP0982397A1, “Inhibition of contact system activation” (Stichting Sanquin Bloedvoorziening, priority 1998, dated 2000):
Not every detail of the peptide structures is certain; ends, links or a residue may be inferred. Ends that are not written are not given here.

Assays:
[1] = tested on: FXII; experiment: Inhibition by synthetic peptides of FXII activation by kallikrein in the presence of mAb KOK5; format: biochemical, human
[2] = tested on: mAb KOK5; experiment: Competitive ELISA: binding of biotinylated mAb KOK5 to immobilized FXII in the presence of synthetic peptides; settings: at the concentrations used
[3] = tested on: FXII; experiment: Binding of 125I-FXII to kaolin; design: species or system human; settings: for effect on FXII binding to kaolin: result in words
Protocol: • Figure 1: Effects of mAb KOK5 on activation of purified FXII. • A: Activation by kallikrein: Twenty-five µl of prewarmed FXII (125 nM), 25 µl of serial dilutions of mAb KOK5, 25 µl of prewarmed kallikrein (25 nM) and 25 µl of buffer yielding final concentrations of 50 mM Tris-HCl, 150 mM NaCl, 0.1% (wt/vol) Tween-20, pH 7.8, were incubated for 30 min at 37°C. Thereafter, 50 µl of assay mixture containing the chromogenic substrate S-2302 were added and the increase in absorbance at 405 nm at 37°C was recorded. Results are expressed as percentage of the total amount of FXII present in the mixture (as determined by limited digestion with 10 nM trypsin), and represent the mean ± SE of two experiments. The activation in the presence of mAb KOK5 in the presence of dextran sulphate MW 500,000 (DS500; 50 µg/ml), as well as that by DS500 (50 µg/ml) alone is shown; • B: Autoactivation: Twenty-five µl of prewarmed FXII (500 nM), 25 µl of serial dilutions of mAb KOK5 and 50 µl of buffer yielding final concentrations of 50mM Tris-HCl, 150mM NaCl, 0.1% (wt/vol) Tween-20, pH 7.8, were incubated for 60 min at 37°C. Thereafter, 50 µl of assay mixture containing S-2302 were added and the increase in absorbance at 405 nm at 37°C was recorded. Results represent the percentage of the total amount of FXII in the mixture, and represent the mean ± SE of two experiments. • Figure 2: Activation of contact system in plasma by mAb KOK5. […] The reaction was stopped by adding 120 µl of stop buffer (PBS, 0.1 mg/ml SBTI, Polybrene 0.05% wt/vol) and the amount of FXIIa-C1-inhibitor (+---+), kallikrein-C1-inhibitor (o- -o) and factor XIa-C1-inhibitor (●- -●) complexes generated was measured. Results, expressed as percentage of the maximum amount of complexes generated in pooled plasma by DS500 (50 µg/ml), represent the mean values ± S.D. from three different experiments. • Figure 3. […] In addition 50 µl of purified FXII (500 nM) were first incubated for 2 min with kaolin and then with serial dilutions of mAb KOK5 for 15 min (+---+); whereafter the residual FXII clotting activity was measured. Results are expressed as percentage of inhibition compared to the clotting activity measured in the absence of mAbs and are the mean ± SE of two experiments. • Figure 4. […] After 10 min at room temperature tubes were centrifuged for 2 min at 10,000 g and the pellets were counted for radioactivity. Binding was expressed as the percentage of the total counts that were found in the pellet in the absence of mAbs. […] Bound FXII was detected by subsequent incubation with ^125I-anti-FXII antibodies. Results are expressed as percentage of the ^125I-anti-FXII added and represent the means of two experiments. • Figure 6. […]

[4] = tested on: contact system; experiment: Inhibition by synthetic peptides of contact system activation in EDTA-plasma induced by DS500; format: biochemical, human; settings: for IC50: Activator DS500
Protocol: • Figure 1: Effects of mAb KOK5 on activation of purified FXII. • A: Activation by kallikrein: Twenty-five µl of prewarmed FXII (125 nM), 25 µl of serial dilutions of mAb KOK5, 25 µl of prewarmed kallikrein (25 nM) and 25 µl of buffer yielding final concentrations of 50 mM Tris-HCl, 150 mM NaCl, 0.1% (wt/vol) Tween-20, pH 7.8, were incubated for 30 min at 37°C. Thereafter, 50 µl of assay mixture containing the chromogenic substrate S-2302 were added and the increase in absorbance at 405 nm at 37°C was recorded. Results are expressed as percentage of the total amount of FXII present in the mixture (as determined by limited digestion with 10 nM trypsin), and represent the mean ± SE of two experiments. The activation in the presence of mAb KOK5 in the presence of dextran sulphate MW 500,000 (DS500; 50 µg/ml), as well as that by DS500 (50 µg/ml) alone is shown; • B: Autoactivation: Twenty-five µl of prewarmed FXII (500 nM), 25 µl of serial dilutions of mAb KOK5 and 50 µl of buffer yielding final concentrations of 50mM Tris-HCl, 150mM NaCl, 0.1% (wt/vol) Tween-20, pH 7.8, were incubated for 60 min at 37°C. Thereafter, 50 µl of assay mixture containing S-2302 were added and the increase in absorbance at 405 nm at 37°C was recorded. Results represent the percentage of the total amount of FXII in the mixture, and represent the mean ± SE of two experiments. • Figure 2: Activation of contact system in plasma by mAb KOK5. Forty ml of EDTA-plasma were incubated with 40 µl of two-fold dilutions of mAb KOK5 in PBS for 20 min at 37°C as described in Material and methods. The reaction was stopped by adding 120 µl of stop buffer (PBS, 0.1 mg/ml SBTI, Polybrene 0.05% wt/vol) and the amount of FXIIa-C1-inhibitor (+---+), kallikrein-C1-inhibitor (o- -o) and factor XIa-C1-inhibitor (●- -●) complexes generated was measured. Results, expressed as percentage of the maximum amount of complexes generated in pooled plasma by DS500 (50 µg/ml), represent the mean values ± S.D. from three different experiments. • Figure 3. Inhibition of FXII clotting activity by mAb KOK5. Fifty µl of purified FXII (500nM) were preincubated with 50 µl of serial dilutions of either mAb KOK5 ( o- -o) or mAb F1 (●- -●) in PBS for 15 min and then tested in a FXII-clotting assay as described in Material and methods. In addition 50 µl of purified FXII (500 nM) were first incubated for 2 min with kaolin and then with serial dilutions of mAb KOK5 for 15 min (+---+); whereafter the residual FXII clotting activity was measured. Results are expressed as percentage of inhibition compared to the clotting activity measured in the absence of mAbs and are the mean ± SE of two experiments. • Figure 4. Inhibition of FXII binding to kaolin by mAb KOK5. Fifty µl of ^125I-FXII (0.027 pmoles/ml) were added to 0.5 ml polypropylene tubes and incubated at room temperature for 1 h with 10 µl of PBS, 0.1% (wt/vol) Tween-20 (PT) containing increasing amounts of mAbs (mAb KOK5 (o---o); mAb F1 (●---●)). Thereafter, 50 µl of kaolin (0.032 mg/ml in PT) were added. After 10 min at room temperature tubes were centrifuged for 2 min at 10,000 g and the pellets were counted for radioactivity. Binding was expressed as the percentage of the total counts that were found in the pellet in the absence of mAbs. […] Bound FXII was detected by subsequent incubation with ^125I-anti-FXII antibodies. Results are expressed as percentage of the ^125I-anti-FXII added and represent the means of two experiments. • Figure 6. […]

[5] = tested on: contact system; experiment: Inhibition by synthetic peptides of contact system activation in EDTA-plasma induced by kaolin; format: biochemical, human; settings: for IC50: Activator kaolin
Protocol: • Figure 1: Effects of mAb KOK5 on activation of purified FXII. • A: Activation by kallikrein: Twenty-five µl of prewarmed FXII (125 nM), 25 µl of serial dilutions of mAb KOK5, 25 µl of prewarmed kallikrein (25 nM) and 25 µl of buffer yielding final concentrations of 50 mM Tris-HCl, 150 mM NaCl, 0.1% (wt/vol) Tween-20, pH 7.8, were incubated for 30 min at 37°C. Thereafter, 50 µl of assay mixture containing the chromogenic substrate S-2302 were added and the increase in absorbance at 405 nm at 37°C was recorded. Results are expressed as percentage of the total amount of FXII present in the mixture (as determined by limited digestion with 10 nM trypsin), and represent the mean ± SE of two experiments. The activation in the presence of mAb KOK5 in the presence of dextran sulphate MW 500,000 (DS500; 50 µg/ml), as well as that by DS500 (50 µg/ml) alone is shown; • B: Autoactivation: Twenty-five µl of prewarmed FXII (500 nM), 25 µl of serial dilutions of mAb KOK5 and 50 µl of buffer yielding final concentrations of 50mM Tris-HCl, 150mM NaCl, 0.1% (wt/vol) Tween-20, pH 7.8, were incubated for 60 min at 37°C. Thereafter, 50 µl of assay mixture containing S-2302 were added and the increase in absorbance at 405 nm at 37°C was recorded. Results represent the percentage of the total amount of FXII in the mixture, and represent the mean ± SE of two experiments. • Figure 2: Activation of contact system in plasma by mAb KOK5. Forty ml of EDTA-plasma were incubated with 40 µl of two-fold dilutions of mAb KOK5 in PBS for 20 min at 37°C as described in Material and methods. The reaction was stopped by adding 120 µl of stop buffer (PBS, 0.1 mg/ml SBTI, Polybrene 0.05% wt/vol) and the amount of FXIIa-C1-inhibitor (+---+), kallikrein-C1-inhibitor (o- -o) and factor XIa-C1-inhibitor (●- -●) complexes generated was measured. […] Inhibition of FXII clotting activity by mAb KOK5. […] In addition 50 µl of purified FXII (500 nM) were first incubated for 2 min with kaolin and then with serial dilutions of mAb KOK5 for 15 min (+---+); whereafter the residual FXII clotting activity was measured. Results are expressed as percentage of inhibition compared to the clotting activity measured in the absence of mAbs and are the mean ± SE of two experiments. • Figure 4. […] After 10 min at room temperature tubes were centrifuged for 2 min at 10,000 g and the pellets were counted for radioactivity. Binding was expressed as the percentage of the total counts that were found in the pellet in the absence of mAbs. […] Bound FXII was detected by subsequent incubation with ^125I-anti-FXII antibodies. Results are expressed as percentage of the ^125I-anti-FXII added and represent the means of two experiments. • Figure 6. […]

[6] = read-out: FXIIa-C1inh (IC50 values)
[7] = read-out: FXIa-C1inh (IC50 values)
[8] = read-out: kal-C1inh (IC50 values)

Row | Sequence | IC50 [1] [µM] | competition of the binding of biotinylated mAb KOK5 to purified FXII immobilized on microplates [2] | effect on FXII binding to kaolin ([3]; synthetic peptides) | inhibition of FXII activation by kallikrein in the presence of mAb KOK5 ([1]; result in words) | effect on contact system activation ([4]; DS500 (Fig. 9)) | effect on contact system activation ([5]; kaolin (Fig. 9)) | IC50 [4, 6] [µM] | IC50 [4, 7] [µM] | IC50 [4, 8] [µM] | efficiency relative to SHQCTHRKCY in inhibiting contact system activation ([4]; DS500 or kaolin (table 3)) | IC50 relative to that of FXII itself (times higher) ([3]; inhibition of binding of 125I-FXII to kaolin) | IC50 ([3]; synthetic peptides, read-out: IC50, inhibition of binding of 125I-FXII to kaolin) [µM] | IC50 [5, 6] [µM] | IC50 [5, 7] [µM] | IC50 [5, 8] [µM]
1 | AEGEFRFQTPQWE [AEGEFRFQTPQWE] | 50 | able to compete, in a dose dependent manner | did not show any effect |  |  |  |  |  |  |  |  |  |  |  | 
2 | HFPFQYHRQ [^29HFPFQYHRQ^37, HFPFQYHRQ] |  | did not have any effect | neither did | weak inhibition | did not have any effect | did not have any effect |  |  |  |  |  |  |  |  | 
3 | YHKCTHKGR [^39YHKCTHKGR^47, YHKCTHKGR] |  |  |  |  |  |  | 360 ± 130 | 3000 ± 1000 | 420 ± 70 | at least ten times more efficient | 10,000 times | 900 | 1000 ± 280 | 2330 ± 620 | 1250 ± 750
